Assay results reported in the supplement of paper PMC12823440, “Inhibitors supercharge kinase turnover through native proteolytic circuits” (Nature, 2025).
Where a name gives a salt, the structure may show the parent alone. This is one part of the list. The calls rarely recur for the same compound in another form.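 Kinases were expressed as nanoluciferase fusions in K562 cells and luminescence was read every 4 h between 2 and 18 h as percent of control, DMSO set to 100% and a positive control to 0%. A time point counts as decreased when the signal drops significantly (2 sigma). The hit call is the authors' own, does not follow from the count of time points alone, and its rule is not shown.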

Protein sequences, listed by entry. Tags and fused reporters are not part of them.
UniProt Q14289, whole entry, looked up: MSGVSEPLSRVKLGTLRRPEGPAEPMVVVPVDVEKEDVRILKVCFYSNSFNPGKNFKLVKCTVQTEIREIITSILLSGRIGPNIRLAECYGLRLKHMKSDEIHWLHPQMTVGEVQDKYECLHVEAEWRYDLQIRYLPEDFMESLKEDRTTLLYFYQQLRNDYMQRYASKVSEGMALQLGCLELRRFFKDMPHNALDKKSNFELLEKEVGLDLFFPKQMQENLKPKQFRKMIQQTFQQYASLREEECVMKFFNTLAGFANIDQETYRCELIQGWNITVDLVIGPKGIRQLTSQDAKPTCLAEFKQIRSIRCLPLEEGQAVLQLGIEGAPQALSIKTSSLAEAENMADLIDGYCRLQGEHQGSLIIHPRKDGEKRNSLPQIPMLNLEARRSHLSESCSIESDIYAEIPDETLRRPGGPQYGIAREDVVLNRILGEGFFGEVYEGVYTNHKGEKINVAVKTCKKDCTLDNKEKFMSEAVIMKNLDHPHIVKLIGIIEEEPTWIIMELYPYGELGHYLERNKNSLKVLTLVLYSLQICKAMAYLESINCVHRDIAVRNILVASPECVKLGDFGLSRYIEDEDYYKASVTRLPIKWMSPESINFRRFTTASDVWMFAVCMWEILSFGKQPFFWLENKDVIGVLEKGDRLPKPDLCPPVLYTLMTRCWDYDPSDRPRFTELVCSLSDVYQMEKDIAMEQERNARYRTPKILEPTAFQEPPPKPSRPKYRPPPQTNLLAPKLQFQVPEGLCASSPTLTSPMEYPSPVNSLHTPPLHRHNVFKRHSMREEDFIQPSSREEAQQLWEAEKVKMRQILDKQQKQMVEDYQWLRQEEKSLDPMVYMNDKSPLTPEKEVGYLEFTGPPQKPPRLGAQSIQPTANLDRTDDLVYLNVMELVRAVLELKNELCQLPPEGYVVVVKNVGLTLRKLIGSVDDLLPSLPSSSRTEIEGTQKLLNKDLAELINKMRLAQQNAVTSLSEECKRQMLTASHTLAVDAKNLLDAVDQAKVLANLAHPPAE

The molecules below were run against PTK2B (UniProt Q14289) (assay: kinase-Nluc reporter destabilization hit call (1 = scored as downregulated) (binary); higher = compound decreases kinase abundance). Conditions: K562; 2-18 h.

kinase-Nluc reporter destabilization hit call, inactive:
Cc1nc2c(NCc3cccc(S(C)(=O)=O)c3)nccn2c1-c1ccc(O)c(F)c1 (10 µM) 0
CNC(=O)CN1CCC(Oc2cc3c(Nc4cccc(Cl)c4F)ncnc3cc2OC)CC1 [Sapitinib] (10 µM) 0
COc1ccc(Br)c(C=O)c1O [6-Bromo-2-hydroxy-3-methoxybenzaldehyde] (10 µM) 0
N#C/C(=C/c1ccc(O)c(O)c1)C(=O)N1CCc2ccccc21 [Tyrphostin AG 528] (10 µM) 0
C[C@H](Nc1cc2c(-c3ccc4c(c3)OCO4)noc2cn1)c1ccccc1 (10 µM) 0
CC1(C)CN(C(=O)c2ccc(-c3cccc4nc(NC(=O)C5CC5)nn34)cc2)C1 [Solcitinib] (10 µM) 0
Cc1ccc(NC(=O)N2CCN(c3nc(N)nc4sc(-c5cccnc5)nc34)CC2)cc1 [PI4KIII beta inhibitor 3] (10 µM) 0
COc1ccc(Cl)cc1N(CC(=O)Nc1ccc2c(c1)OCO2)S(=O)(=O)c1ccccc1 (2.5 µM) 0
CN1CCN(c2ccc(-n3cc(-c4ccncc4OCC4CCNCC4)cn3)cc2)CC1 [MELK-8a (hydrochloride)] (10 µM) 0
CC1=CC(=O)C(C(C)C)=C/C1=N/OC(=O)c1ccccc1C [Poloxin] (2.5 µM) 0
O=C(O)/C=C(\CCc1ccc(Cl)cc1)c1ccccc1 (10 µM) 0
CCOC(=O)c1c(C)[nH]c(C=C2C(=O)Nc3ccccc32)c1C (10 µM) 0
O=C(NC[C@H](O)CO)c1ccncc1Nc1ccc(I)cc1F [Pimasertib] (10 µM) 0
O=[N+]([O-])c1ccc(-c2nc(-c3ccc(F)cc3)c(-c3ccncc3)[nH]2)cc1 (10 µM) 0
COc1ccc(CCNCc2ccc(OCc3ccc(Cl)nc3)c(OC)c2)cc1OC [SBE13 (Hydrochloride)] (10 µM) 0

Each molecule was assayed against RAF1 (UniProt P04049) in the same assay as above. Conditions: K562; 2-18 h.

kinase-Nluc reporter destabilization hit call, inactive:
COc1ccc2nc3ccc(OC)cc3c(SCCCN)c2c1 (10 µM) 0
NC(=O)c1sc2c([N+](=O)[O-])cc(C(F)(F)F)cc2[n+]1[O-] [Cyclapolin 9] (10 µM) 0
CS(=O)(=O)c1cccc(CNc2nc(Nc3ccc4c(c3)CCC(=O)N4)ncc2C(F)(F)F)c1 (10 µM) 0
CS(=O)(=O)c1ccc([C@@H](CC2CCCC2)C(=O)Nc2nccs2)cc1 (10 µM) 0
C=CC(=O)Nc1cc(Nc2nccc(-c3cn(C)c4ccccc34)n2)c(OCC(F)(F)F)nc1N(C)CCNC [AST5902  (trimesylate)] (2.5 µM) 0
CO/N=C1/C(c2c(O)[nH]c3cc(Cl)c(Cl)cc23)=Nc2ccccc21 (10 µM) 0
CC(ONC(=O)c1cc(C(F)(F)F)cc(C(F)(F)F)c1)C(=O)Nc1ccc(Cl)cc1 (stereo not drawn) (2.5 µM) 0
Cc1ccc(C2CC(=O)NC(SCC(=O)Nc3nccs3)=C2C#N)cc1 (stereo not drawn) [Necrostatin-34] (10 µM) 0
O=CN1CCN(c2ccc(C=C3C(=O)Nc4ccccc43)cc2)CC1 (10 µM) 0
CCCS(=O)(=O)N[C@H]1C[C@@H](N(C)c2ncnc3[nH]ccc23)C1 [Abrocitinib] (10 µM) 0
NC(=O)c1cnc(N[C@@H]2CCCC[C@@H]2N)nc1Nc1cccc(-n2nccn2)c1 (2.5 µM) 0
CS[C@@]1(C(=O)Nc2ccc3[nH]nc(-c4ccc(OC(C)C)nc4)c3c2)CCN(CC(=O)N2CC=C(c3ccc(-c4ncn(C)n4)cc3)CC2)C1 (2.5 µM) 0
Fc1ccc(Cl)cc1-c1nc(Nc2ccncc2)c2nccnc2n1 (10 µM) 0
O=C(Nc1ccccc1C(=O)NC1CCCCNC1=O)c1cc2ccccc2s1 (stereo not drawn) (10 µM) 0
O=C(O)c1c[nH]c2cc(Cl)c(-c3ccc(C4(O)CCC4)cc3)cc12 (10 µM) 0
CN(C[C@@H]1COCCO1)S(=O)(=O)Nc1ccc2ccc3ncc(-c4cnn(C)c4)cc3c(=O)c2c1 (2.5 µM) 0
NC(=O)c1ccccc1Nc1ccnc(Nc2cccc(O)c2)n1 (10 µM) 0
Cc1ccc2c(NS(=O)(=O)c3ccccc3Cl)cccc2c1Oc1ncccc1-c1ccnc(N[C@H]2CCCNC2)n1 (2.5 µM) 0

A stretch taken from the entries so far:
kinase-Nluc reporter destabilization hit call, inactive:
CS[C@@]1(C(=O)Nc2ccc3[nH]nc(-c4ccc(OC(C)C)nc4)c3c2)CCN(CC(=O)N2CC=C(c3ccc(-c4ncn(C)n4)cc3)CC2)C1 (2.5 µM) 0
Fc1ccc(Cl)cc1-c1nc(Nc2ccncc2)c2nccnc2n1 (10 µM) 0
